Drawing on PMC7819943, “Rice protein-binding microarrays: a tool to detect cis-acting elements near promoter regions in rice”, this text covers binding signal for 42 sequences.

This is one part of the list.

This experiment concerns the target T1, OsSMF1 (Oryza sativa, UniProt Q6ZLB0 1-436).
T1 sequence: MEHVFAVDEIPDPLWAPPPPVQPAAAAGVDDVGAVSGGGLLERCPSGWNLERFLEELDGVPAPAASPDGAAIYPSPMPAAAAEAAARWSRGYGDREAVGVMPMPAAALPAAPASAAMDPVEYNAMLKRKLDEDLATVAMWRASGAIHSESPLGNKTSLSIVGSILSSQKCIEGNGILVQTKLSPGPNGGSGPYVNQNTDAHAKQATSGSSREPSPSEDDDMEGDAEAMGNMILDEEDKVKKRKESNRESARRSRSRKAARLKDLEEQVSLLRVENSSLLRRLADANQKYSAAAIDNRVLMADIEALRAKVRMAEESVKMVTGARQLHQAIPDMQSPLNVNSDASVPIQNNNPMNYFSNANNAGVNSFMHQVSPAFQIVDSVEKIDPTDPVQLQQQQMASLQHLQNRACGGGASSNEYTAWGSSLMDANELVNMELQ
Description: protein-binding microarray (RPBM); PBS, 2% BSA, 51.3 ng/ul salmon testes DNA, 50 uM zinc acetate, 200 nM TF, 25 C, 1 h; high values mean tight binding. To be noted: protein: recombinant; tags: N-terminal polyhistidine and DsRed monomer fusion (pET32a); chain copies: 2; label: CyDye5-dUTP incorporated in the synthesized complementary strand; 3' TTTTT single-stranded linker to array surface; dsDNA, one strand shown. A digest of the protocol: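 Binding signal is reported as fluorescence intensity per feature (arbitrary units) from an Axon 4000B scanner. Incubation used 200 nM of each Ni–NTA-purified, N-terminally polyhistidine- and DsRed-fused transcription factor from E. coli BL21-CodonPlus on a double-stranded custom Agilent array for 1 h at 25 °C, with 50 µM zinc acetate in the buffer, followed by washing.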
Consider “GCGTCTCCAACGTACGAACGAACATTGGCGACGTGGAGGCCGGAGTCACCTAGTGCAG”, for which the binding signal was 5140 fluorescence intensity (a.u.). The value for “GACGGGCGGCGGTGGGGCTGACGCGGGCGACGGAGGGGCTCGGAGTCACCTAGTGCAG” was 6720 fluorescence intensity (a.u.); that for “AGGCGTCCATCGAAGCGTCTCTCGCTGCCGTGTGGGCCCCCGGAGTCACCTAGTGCAG” was 3200 fluorescence intensity (a.u.). The value for “GGTTGTTGAGCTAGCATTATACGTACATTTAAGTTTGGCACGGAGTCACCTAGTGCAG” was 3340 fluorescence intensity (a.u.); that for “GCTACACTTAACGCTGTCCACAACTCCACATACGCGTTACCGGAGTCACCTAGTGCAG” was 3330 fluorescence intensity (a.u.). The value for “TATCCACCACCTAGTTGCTGCCACCTCCTGAGAACCAAGCCGGAGTCACCTAGTGCAG” was 4130 fluorescence intensity (a.u.); that for “TAAATGACATATCATGATAAGTTCTAAGATTTGGATATGTCGGAGTCACCTAGTGCAG” was 3450 fluorescence intensity (a.u.). “CTGCAGTGACGGCAGCTGCTACTACTCGTCGTCTCGTCGCCGGAGTCACCTAGTGCAG”: the binding signal was 3900 fluorescence intensity (a.u.). As to “AAACAGCCATCAAGGCCCAAAGGCCCAGAAATATCACCGACGGAGTCACCTAGTGCAG”, the binding signal is 35500 fluorescence intensity (a.u.). The value for “GTCGAGCACAAGCGCGTGGCAGCCGTGGCCTGATGGCGCGCGGAGTCACCTAGTGCAG” was 4290 fluorescence intensity (a.u.); that for “CGCTGCCCGTCTTCGCCAGCGAGCGCCACCGCCGCTCTTCCGGAGTCACCTAGTGCAG” was 3430 fluorescence intensity (a.u.). The value for “ATCTCTCTCATATTCCTTCGATCTGCAGCTTGTACGTTGGCGGAGTCACCTAGTGCAG” was 3300 fluorescence intensity (a.u.); that for “AAATCTCTATCCTGAGTGCCAGTGGTTTGGTGTTGAACATCGGAGTCACCTAGTGCAG” was 14900 fluorescence intensity (a.u.); that for “TGTCGTCGCGATACGACAACGTGGGCCGTCCACGTGTCCCCGGAGTCACCTAGTGCAG” was 20400 fluorescence intensity (a.u.). The value for “GCGCGGCGATCACCGCTGGGGCTTTGTGGCGTGGAGACCGCGGAGTCACCTAGTGCAG” was 3400 fluorescence intensity (a.u.); that for “CCACCGCCGCTTCGCTTCACTCTCGCGTTCGAGTCACACACGGAGTCACCTAGTGCAG” was 3560 fluorescence intensity (a.u.). Take “CGCCGGCGAGCGCCATCCTCTCCTCCGTCTGATTCGTCCCCGGAGTCACCTAGTGCAG”: the binding signal was 4430 fluorescence intensity (a.u.).

For the sequence “GTCGGCCGAGCCGCCCCTCGATCTAGGGTGGCCGGAAGAGCGGAGTCACCTAGTGCAG”, the binding signal is 3860 fluorescence intensity (a.u.). The value for “TTGGGCGGCGGTGCGGGGAGGCTGAGGGGCGGCGCCGGCGCGGAGTCACCTAGTGCAG” was 3580 fluorescence intensity (a.u.); that for “GAAAGGTATTTGCTAGCTCCATCTGTCATTACACGGTGGACGGAGTCACCTAGTGCAG” was 4290 fluorescence intensity (a.u.); that for “ATGGCCACGCCTCCACCCGTCACTTCGCTGCATCGCTGACCGGAGTCACCTAGTGCAG” was 3830 fluorescence intensity (a.u.).

For “CTGCCTGAGCTCACTTGACCTTACCACATGGGTTCAGATTCGGAGTCACCTAGTGCAG”, the binding signal is 3310 fluorescence intensity (a.u.). The value for “AAACATCTGCTAATGACGGATTAATTAGGCTTAAGTCTCGCGGAGTCACCTAGTGCAG” was 3210 fluorescence intensity (a.u.); that for “AAAAGTGGCAAACAATTATGTGCAAAACTAAAAGGGGCATCGGAGTCACCTAGTGCAG” was 33300 fluorescence intensity (a.u.).

On to “ATTTTCCTATTTGTAATGACATGGATTTAATTTACCTTAACGGAGTCACCTAGTGCAG”, for which the binding signal was 4620 fluorescence intensity (a.u.). On to “AAAGCCGTTAAATCTAAATCCTGGAAAATTCGCTCACATGCGGAGTCACCTAGTGCAG”, for which the binding signal was 3510 fluorescence intensity (a.u.). The value for “TCTTAATTACACGTGAGCTATATTTGTACTGCCTTGGTCCCGGAGTCACCTAGTGCAG” was 3500 fluorescence intensity (a.u.); that for “TGTTTGTGTTCTCACTGGAAAATACAAGCTCTAGTGCAGTCGGAGTCACCTAGTGCAG” was 6300 fluorescence intensity (a.u.); that for “TGGCTATACTATTGAACTTGCTCTCGTGGGACCCACATACCGGAGTCACCTAGTGCAG” was 3680 fluorescence intensity (a.u.). The value for “CATGCTTGCATCACGCCGACGTAAGCACATATCCTCCTCGCGGAGTCACCTAGTGCAG” was 9470 fluorescence intensity (a.u.); that for “ACGGTCTTCAACTCCCAGATCGCCGCATCACCCGCGCCTGCGGAGTCACCTAGTGCAG” was 3140 fluorescence intensity (a.u.).

Regarding “AAAATATATTAACTGGAATTCCAAGTGTATTACCTCATGTCGGAGTCACCTAGTGCAG”, the binding signal was 3250 fluorescence intensity (a.u.). As to “GTTGCCATGTGATGTGTGTGATGCGAAGCCGAAGCCTGTGCGGAGTCACCTAGTGCAG”, the binding signal is 3500 fluorescence intensity (a.u.). The value for “TTGCTTCATCGACACGTATACTTCTGAGCTCATGGTCACGCGGAGTCACCTAGTGCAG” was 6070 fluorescence intensity (a.u.). The value for “AGAGGAGGTGGTGATCGCCGGTGATCGCCGACAACCAACGCGGAGTCACCTAGTGCAG” was 17000 fluorescence intensity (a.u.). The value for “AGGAGTAGCACAGAGTGTGAGTAGACGCAATAAGCCCTGCCGGAGTCACCTAGTGCAG” was 3240 fluorescence intensity (a.u.); that for “CACGCGGTTGAGCTCCACGTCGCGCGCATTGTCGCACTCCCGGAGTCACCTAGTGCAG” was 3950 fluorescence intensity (a.u.). Turning to “AGCGAGAGAAGATGCTGACGTGGCATCATGACATGTGGGGCGGAGTCACCTAGTGCAG”, the binding signal was 19300 fluorescence intensity (a.u.). The value for “GGGACATGACAATGTGATAGCTGACTTGGAAGATAGACGCCGGAGTCACCTAGTGCAG” was 4420 fluorescence intensity (a.u.). Consider “AGAAGACGATCTCCTGAGACAAATTGCCAAAATTAAAGAACGGAGTCACCTAGTGCAG”, for which the binding signal is 4830 fluorescence intensity (a.u.).

Regarding “ACGCGCTCGCCTCGCGTCATCGGATCAAATGGTGGAGGCGCGGAGTCACCTAGTGCAG”, the binding signal is 3970 fluorescence intensity (a.u.). The value for “GCAGCCCACCAGCGCGCGCTGACGTGTCGCGACGCGGCAGCGGAGTCACCTAGTGCAG” was 9170 fluorescence intensity (a.u.).
